Source: patent US20020128193A1, “Retro-inverso prosaposin-derived peptides and use thereof” (priority 1999, published 2002)
In brackets after ≈: the same amount, converted by molar mass. Not every detail of the peptide structures is certain; ends, links or a residue may be inferred. Residues, ends and D or L forms follow the SMILES beside them.

What was measured:
[1] = tested on: NS20Y neuroblastoma cells
Method: NS20Y neuroblastoma cells were grown in DMEM containing 10% fetal calf serum (FCS). Cells were removed with trypsin and plated in 30 mm petri dishes onto glass coverslips. […] Cells were cultured for an additional 24 hours, washed with PBS and fixed with Bouin's solution (saturated aqueous picric acid/formalin/acetic acid 15:5:1) for 30 minutes. Fixative was removed with PBS and neurite outgrowth was scored under a phase contrast microscope. […] At least 200 cells were scored in different portions of each dish to determine the percentage of neurite bearing cells and assays were performed in duplicate.
The ED50 value is defined as the half maximal concentration for maximal neurite outgrowth and neural protection in ng/ml.

EAE rats = assay: Reversal of demyelination in experimental allergic encephalomyelitis (EAE) rat model; format: in vivo, Lewis rats; conditions: for reduction of average lesion size compared to controls / reduction of number of spinal cord lesions/mm^2 compared to controls: 100 μg/kg orally daily, EAE rats
Method: Experimental allergic encephalomyelitis (EAE) is a rat model of human multiple sclerosis (MS). In rats, EAE is induced by injecting foreign protein (guinea pig spinal cord) which results in inflammation and demyelination in white matter 11 days later.
EAE was induced in Lewis rats by injection of an emulsion of guinea pig spinal cord and complete Freund's adjuvant (CFA). At day 12-14, when weakness was evident, treatment with D8 (SEQ ID NO: 4) was begun (100 μg/kg orally in PBS via a stomach tube) and continued for 16 days every day. Six rats were injected with vehicle only. The number and size of demyelinating lesions (plaques) in the spinal cord per mm^2 was scored at […].
After 16 days of oral treatment with D8 (100 μg/kg/day) beginning after the onset of EAE at 14 days, spinal cord lesions were examined and the number of remyelinated axons per lesion were counted.

With `CC(C)C[C@@H](N)C(=O)N[C@H](CC(C)C)C(=O)N[C@H](CCC(=O)O)C(=O)N[C@H](CCC(=O)O)C(=O)N[C@H](CC(N)=O)C(=O)N[C@H](CC(N)=O)C(=O)N[C@H](CC(=O)O)C(=O)N[C@H](CC(C)C)C(=O)O` [Peptide D8, D-leu-D-leu-D-glu-D-glu-D-asn-D-asn-D-asp-D-leu] (HELM PEPTIDE1{[dL].[dL].[dE].[dE].[dN].[dN].[dD].[dL]}$$$$V2.0; N-terminus and C-terminus assumed) the ED50 ([1]; half maximal concentration for maximal neurite outgrowth and neural protection, NS20Y cells) was 0.01 ng/mL (≈ 0.0104 nM), the “ED50 times lower than the next most potent peptide, D5” value ([1]; neurite outgrowth NS20Y) was 50 times and the “Bioactive?” value ([1]; neurite outgrowth, NS20Y cells, 0-8 ng/ml peptide, 24 hours) was “YES”. For the same molecule, the “remyelination in spinal cord lesions” value (EAE rats; 16 days oral 100 μg/kg/day, electron microscopy) was “positive for remyelination”, the “reduction of average lesion size compared to controls” value (EAE rats; after 8 days of treatment) was 65% and the “reduction of number of spinal cord lesions/mm^2 compared to controls” value (EAE rats; after 8 days of treatment) was 76%. The “reduction of average lesion size compared to controls” value (EAE rats; after 16 days of treatment) was 79% and the “reduction of number of spinal cord lesions/mm^2 compared to controls” value (EAE rats; after 16 days of treatment) was 93%.
